Results reported in article PMC8115616.

Target: RsbS (bacterial two-hybrid fusion) (Mycobacterium marinum (strain CCUG20998)) (UniProt B2HK91)
Assay: two-hybrid; bacterial two-hybrid system (BACTH); blue colonies indicated that the two polypeptides did interact; the two proteins expressed from different plasmids with different copy numbers

RsbR (bacterial two-hybrid fusion) (from UniProt B2HK90)
binding: binds

These are yes or no findings as the source states them, for the method shown. Binding calls can cover weak binding; strength is not graded here.
